Patent publication US4548819A, “Derivatives of 9-(2-hydroxyethoxymethyl) guanine” (priority 1983, dated 1985)
Structures can show the parent of a compound that is named as a salt. Some of these results come from one statement about several compounds together.

Test system: herpes simplex type 1 and herpes simplex type 2
Test: Antiviral activity in vitro, overall comparison with acyclovir
Format: cell-based, herpes simplex virus, Type 1 and Type 2
Settings: in words

NCCC(=O)OCCOCn1cnc2c(=O)[nH]c(N)nc21 [Example 3, 9-(2-0-β-alanyloxyethoxymethyl)guanine hydrochloride]
antiviral activity compared with acyclovir: substantially that of 9-(2-hydroxyethoxymethyl)guanine

Cl.NCC(=O)OCCOCn1cnc2c(=O)[nH]c(N)nc21 [Example 1, 9-(2-glycyloxyethoxymethyl)guanine hydrochloride]
antiviral activity compared with acyclovir: substantially that of 9-(2-hydroxyethoxymethyl)guanine

CC(N)C(=O)OCCOCn1cnc2c(=O)[nH]c(N)nc21 (stereo not drawn) [Example 2, 9-(2-0-α-alanyloxyethoxymethyl)guanine hydrochloride]
antiviral activity compared with acyclovir: substantially that of 9-(2-hydroxyethoxymethyl)guanine
